Median seed-adjusted z-score data for 53 sequences are collected here from PubChem BioAssay AID1347426 (Functional Genomics Laboratory (NCATS/FGL), 2020).

Out of some 31,000 sequences screened, about 1,400 (4.5%) were called active.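 How the source made its calls: active means median seed-adjusted z-score above 1 or below -1; inactive means the rest.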 The list shows a part of the results.

This assay is described as follows: Novel Modifiers of Survival Motor Neuron (SMN) Protein: Gene Identification via Genome-wide siRNA Screen.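 Further: luminescence tracks full-length SMN protein made from the SMN2 reporter.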 The following applies: HEK293T SMN2-luciferase reporter, siRNA knockdown, 72 h; actives lie on both sides. The method, boiled down:
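Steps: spot 1 pmol siRNA, add Lipofectamine RNAiMax in serum-free DMEM, seed HEK293T SMN2–luciferase reporter cells; incubate 72 h at 37 °C; add ONE-Glo; normalize luminescence to control siRNA, log10, MAD. Candidates: |MAD| > 1.0.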
With CCACGAGGAUGCGAACAGATT against SPOCK1, the median seed-adjusted z-score was inactive: -0.596. For GCUCUUGCCUGAACCAGUUTT against GDPD3 the value was inactive: -0.0754; for AGUCAGAAUCCGUGAGUUATT against FPR1, inactive: 0.0229; for CGAUGACUCAUUACCCAAUTT against STK17B, inactive: -0.971.

For the sequence GGCACUACCGGAGAACUAATT against CNTN2, the median seed-adjusted z-score is inactive: 0. For CGAAGAUCCCUGUUUUGCATT against KIF1B the value was inactive: 0.376; for GAAGAGAUCCUGAUUGUGATT against ZNF500, inactive: 0. In the case of GUGUCUCAGCUAAUCCAAATT against ATP5G3, the median seed-adjusted z-score was inactive: 0. For GCAUCUCAAUAUCAACAAUTT against LINGO2 the value was inactive: 0.123. For GCAAUUUCCUGCAACCAGUTT against STK33, the median seed-adjusted z-score was inactive: -0.168. For GUGAUGAUGUGAUCGAAUUTT against PDIA6 the value was inactive: -0.269; for CGCGUUCUUCGAUAUGGUATT against PCDHGB6, inactive: 0.34.

For the sequence GAGUAUAAGGUGAAGUUUUTT against SDF4, the median seed-adjusted z-score is inactive: -0.422.

With GCAAGAUCCCAAAUCAGCATT against ADAT1, the median seed-adjusted z-score was inactive: 0.404. For the sequence CUCUGAUUACAAACGCAUATT against C5, the median seed-adjusted z-score is inactive: 0.153. With GAAUGAUUCUUUCAAUCAUTT against MS4A1, the median seed-adjusted z-score is inactive: 0.414. For GCCCAGAGACUAUUCAGUATT against SF3A3, the median seed-adjusted z-score is active: -2.1. Take ACAUCGACGGUCAAGGCAATT against GATA3: the median seed-adjusted z-score is inactive: -0.197. Regarding GGACAAAUAAAUUUGUAAATT against NYX, the median seed-adjusted z-score was inactive: 0.0685. Take GGAGAUCCCAGAUAAAUGUTT against FCRL1: the median seed-adjusted z-score was inactive: -0.873.

With GUUCUGCAAUAAGAGGCAATT against POU6F2, the median seed-adjusted z-score was inactive: 0.416. For GCUCGGCUAUGACCCUUAUTT against TPST2 the value was inactive: -0.682. In the case of CAAGUGACACUGUACUUUATT against GUCY2D, the median seed-adjusted z-score was inactive: 0. For CAGGCUACAGUGAACAGAATT against GNL1 the value was inactive: 0.154; for GGCGUAGUUUUGAAACUCATT against MBD3, inactive: 0.708; for CUACAGAUGUCGAGGUUUUTT against KIR2DL4, inactive: -0.271. As for CUGACAGUCUACUAAGUUATT against RGS7, the median seed-adjusted z-score was inactive: 0.415. For GCUUAGACUUGUUCCAACATT against PSMD9 the value was inactive: 0.266. For GCACGACAGAUUAUAACCATT against ARHGAP21 the value was inactive: 0.229; for GCCCAGCACACGAUGCUUATT against TCIRG1, inactive: 0.123. Turning to CCACCUGCACCUUAGAAUATT against GRM4, the median seed-adjusted z-score is inactive: -0.71. Turning to CCACAAAUGUUUCAACCGATT against IPO11, the median seed-adjusted z-score is inactive: -0.245. For GCAACCACCUAUAUCCUCATT against P2RY10 the value was inactive: -0.432; for GGAUCUGCUUUCGAACCUATT against MBOAT1, active: -1.22. For UGGUCUUCACAACUCGUUATT against KDELR2 the value was inactive: 0. For CUUGAGAUCUGUCAACAGATT against VPS41 the value was inactive: 0.52; for GGACUACAAGGGUUCCGAUTT against RTEL1, inactive: 0.458. For GCACGGUGCAAGGACAUCATT against RNH1, the median seed-adjusted z-score is inactive: 0.55. Consider ACUAAGAGGUGAACAUGUATT against PAK4, for which the median seed-adjusted z-score is inactive: -0.742. For GAAUGUUACUUUAUCAUGATT against RAB40B the value was inactive: -0.31; for CCAUGAUUAAGGGUCUUUATT against LDHA, inactive: 0.401. For GCAAGAUUAGACAUACUGATT against PSMC6 the value was inactive: -0.578; for GAAAAUCGACUCUCAUAAATT against 2-Sep, inactive: 0.0349. For AGACUGAACUCCGAACAGATT against SSH3 the value was inactive: -0.0772. Turning to GAACUGCUAUGAUGAUUCUTT against RHAG, the median seed-adjusted z-score was inactive: -0.212. For GCACUGGUGUUGAAUGACATT against DAG1 the value was inactive: -0.104.

As for CCCUCAACGUGACCAAGGATT against CSF2RB, the median seed-adjusted z-score is inactive: -0.454. For CAAAGUACCGAGUCGAAUATT against SENP7, the median seed-adjusted z-score was inactive: 0.547. Turning to GAUAUACGAGGGAACAGAATT against SLITRK4, the median seed-adjusted z-score was inactive: -0.015. As to CAACAAUGCUGGUUCUGAUTT against MBL2, the median seed-adjusted z-score is inactive: -0.252. On to CUACGUACCCUGCUACUGATT against SLC4A3, for which the median seed-adjusted z-score was inactive: -0.7. On to CGACGAUCACAGAUACAAATT against TBX5, for which the median seed-adjusted z-score is inactive: 0.143. For GGUUUCCGAGUACCGCUGATT against HBQ1 the value was inactive: -0.578.
